Changes are numbered by the printed parent chain. The exact form of at least one protein or probe is not confirmed. For some assays here: At least one verdict rests on a figure or table, not on a statement of the authors. For some assays here: Tags and fusion partners may be left off the protein sequences shown.
Legend:
Experiment in all cases: fluorescence polarisation
[1] = system: T1, ARS2 147-871 (Homo sapiens); settings: 20 mM HEPES pH 7.8, 115 mM NaCl, 1 mM MgCl2, 2 mM TCEP, 7.5% glycerol, 37.5 nM RNA, 25 C, recombinant protein, residues 147-871, protein details: His-tag cleaved by TEV
T1 sequence (looked up): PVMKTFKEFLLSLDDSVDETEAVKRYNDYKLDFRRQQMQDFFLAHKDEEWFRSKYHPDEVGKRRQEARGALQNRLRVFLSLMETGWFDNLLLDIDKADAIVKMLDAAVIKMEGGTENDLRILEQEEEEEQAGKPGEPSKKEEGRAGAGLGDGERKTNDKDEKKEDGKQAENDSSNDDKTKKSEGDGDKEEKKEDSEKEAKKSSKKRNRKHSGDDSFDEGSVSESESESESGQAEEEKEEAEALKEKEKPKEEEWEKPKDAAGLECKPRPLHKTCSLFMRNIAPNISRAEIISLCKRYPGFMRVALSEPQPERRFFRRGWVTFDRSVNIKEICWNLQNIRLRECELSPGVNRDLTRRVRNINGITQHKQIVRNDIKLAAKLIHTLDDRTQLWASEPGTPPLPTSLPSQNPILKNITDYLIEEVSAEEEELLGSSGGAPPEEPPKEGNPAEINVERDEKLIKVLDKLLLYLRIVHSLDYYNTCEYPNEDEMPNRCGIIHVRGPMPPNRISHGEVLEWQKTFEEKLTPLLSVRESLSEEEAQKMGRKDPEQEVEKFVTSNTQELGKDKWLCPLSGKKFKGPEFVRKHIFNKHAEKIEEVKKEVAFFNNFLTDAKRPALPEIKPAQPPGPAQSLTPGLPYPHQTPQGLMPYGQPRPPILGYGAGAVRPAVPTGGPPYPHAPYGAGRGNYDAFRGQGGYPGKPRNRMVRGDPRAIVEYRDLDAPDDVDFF

[2] = system: ARS2 147-270+408-763 (crystallised core) (Homo sapiens); settings: 20 mM HEPES pH 7.8, 115 mM NaCl, 1 mM MgCl2, 2 mM TCEP, 7.5% glycerol, 37.5 nM RNA, 25 C; recombinant protein; protein details: His-tag cleaved by TEV; label: 5'-FAM
[3] = system: T2, ARS2 147-871 K719A K722A K734A (Homo sapiens); settings: 20 mM HEPES pH 7.8, 115 mM NaCl, 1 mM MgCl2, 2 mM TCEP, 7.5% glycerol, 37.5 nM RNA, 25 C; recombinant protein; residues 147-871; protein details: His-tag cleaved by TEV; label: 5'-FAM
T2 sequence (looked up): T1 sequence (looked up) with K573A, K576A, K588A

Sequence | Kd [1] | Kd [2] | Kd ([1]; label: 5'-FAM) | binding result [3]
UACCCUCUUGUUACUACU [ssRNA1 (UC-rich)] | 4.5 µM |  |  | 
UACCCUCUUGUUACUACU / AGUAGUAACAAGAGGG [dsRNA1] | 36.7 µM |  |  | 
AGUAGUAACAAGAGGGUA [AG-rich ssRNA] |  | 2.5 µM | 2.3 µM | binds

From publication PMC5923425, “Structural analysis of human ARS2 as a platform for co-transcriptional RNA sorting” (Nature Communications, 2018)
